# These are yes or no findings as the source states them, for the method shown. In cells and extracts the contact can be indirect. Some results given as binding are weak or reduced against the parent protein; the word gives no strength.
# Sequences of proteins named here, by UniProt entry; tags and fusion partners are left off. Residues count along the entry.
# UniProt P08581, residues 25-1390: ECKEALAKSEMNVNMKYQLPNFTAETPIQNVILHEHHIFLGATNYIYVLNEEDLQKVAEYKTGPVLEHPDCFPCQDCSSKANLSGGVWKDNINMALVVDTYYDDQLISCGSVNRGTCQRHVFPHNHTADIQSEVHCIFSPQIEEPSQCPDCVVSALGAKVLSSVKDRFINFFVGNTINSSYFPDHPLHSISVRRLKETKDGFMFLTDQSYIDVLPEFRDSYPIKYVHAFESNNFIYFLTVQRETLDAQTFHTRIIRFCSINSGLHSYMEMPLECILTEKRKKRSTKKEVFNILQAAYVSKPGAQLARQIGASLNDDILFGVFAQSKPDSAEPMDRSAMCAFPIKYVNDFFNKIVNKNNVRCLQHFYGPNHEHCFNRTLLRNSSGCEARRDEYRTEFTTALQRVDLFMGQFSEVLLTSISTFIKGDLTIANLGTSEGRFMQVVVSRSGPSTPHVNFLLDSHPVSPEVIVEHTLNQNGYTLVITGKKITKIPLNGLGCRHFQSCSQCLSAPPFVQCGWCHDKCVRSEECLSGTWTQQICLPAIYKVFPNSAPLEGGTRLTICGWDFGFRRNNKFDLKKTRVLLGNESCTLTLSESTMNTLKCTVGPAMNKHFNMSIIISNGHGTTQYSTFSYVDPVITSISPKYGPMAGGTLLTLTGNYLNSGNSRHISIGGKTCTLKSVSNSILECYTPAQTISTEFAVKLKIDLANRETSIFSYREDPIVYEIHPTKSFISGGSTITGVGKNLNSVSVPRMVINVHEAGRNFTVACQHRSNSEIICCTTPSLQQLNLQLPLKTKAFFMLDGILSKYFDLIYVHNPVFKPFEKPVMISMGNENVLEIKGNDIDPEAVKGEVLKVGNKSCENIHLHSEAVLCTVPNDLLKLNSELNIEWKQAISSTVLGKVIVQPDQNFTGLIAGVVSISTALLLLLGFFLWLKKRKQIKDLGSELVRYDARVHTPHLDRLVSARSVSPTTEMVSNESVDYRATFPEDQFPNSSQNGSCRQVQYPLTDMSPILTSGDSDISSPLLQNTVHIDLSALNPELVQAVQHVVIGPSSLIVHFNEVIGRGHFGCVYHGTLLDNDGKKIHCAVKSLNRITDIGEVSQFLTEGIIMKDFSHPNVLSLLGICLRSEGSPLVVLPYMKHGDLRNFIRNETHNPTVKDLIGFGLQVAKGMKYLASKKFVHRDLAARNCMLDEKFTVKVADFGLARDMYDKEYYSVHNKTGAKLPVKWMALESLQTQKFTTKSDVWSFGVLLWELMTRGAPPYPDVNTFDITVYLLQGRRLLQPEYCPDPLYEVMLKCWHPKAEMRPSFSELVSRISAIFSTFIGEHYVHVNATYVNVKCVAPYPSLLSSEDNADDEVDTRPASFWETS
# UniProt P54132: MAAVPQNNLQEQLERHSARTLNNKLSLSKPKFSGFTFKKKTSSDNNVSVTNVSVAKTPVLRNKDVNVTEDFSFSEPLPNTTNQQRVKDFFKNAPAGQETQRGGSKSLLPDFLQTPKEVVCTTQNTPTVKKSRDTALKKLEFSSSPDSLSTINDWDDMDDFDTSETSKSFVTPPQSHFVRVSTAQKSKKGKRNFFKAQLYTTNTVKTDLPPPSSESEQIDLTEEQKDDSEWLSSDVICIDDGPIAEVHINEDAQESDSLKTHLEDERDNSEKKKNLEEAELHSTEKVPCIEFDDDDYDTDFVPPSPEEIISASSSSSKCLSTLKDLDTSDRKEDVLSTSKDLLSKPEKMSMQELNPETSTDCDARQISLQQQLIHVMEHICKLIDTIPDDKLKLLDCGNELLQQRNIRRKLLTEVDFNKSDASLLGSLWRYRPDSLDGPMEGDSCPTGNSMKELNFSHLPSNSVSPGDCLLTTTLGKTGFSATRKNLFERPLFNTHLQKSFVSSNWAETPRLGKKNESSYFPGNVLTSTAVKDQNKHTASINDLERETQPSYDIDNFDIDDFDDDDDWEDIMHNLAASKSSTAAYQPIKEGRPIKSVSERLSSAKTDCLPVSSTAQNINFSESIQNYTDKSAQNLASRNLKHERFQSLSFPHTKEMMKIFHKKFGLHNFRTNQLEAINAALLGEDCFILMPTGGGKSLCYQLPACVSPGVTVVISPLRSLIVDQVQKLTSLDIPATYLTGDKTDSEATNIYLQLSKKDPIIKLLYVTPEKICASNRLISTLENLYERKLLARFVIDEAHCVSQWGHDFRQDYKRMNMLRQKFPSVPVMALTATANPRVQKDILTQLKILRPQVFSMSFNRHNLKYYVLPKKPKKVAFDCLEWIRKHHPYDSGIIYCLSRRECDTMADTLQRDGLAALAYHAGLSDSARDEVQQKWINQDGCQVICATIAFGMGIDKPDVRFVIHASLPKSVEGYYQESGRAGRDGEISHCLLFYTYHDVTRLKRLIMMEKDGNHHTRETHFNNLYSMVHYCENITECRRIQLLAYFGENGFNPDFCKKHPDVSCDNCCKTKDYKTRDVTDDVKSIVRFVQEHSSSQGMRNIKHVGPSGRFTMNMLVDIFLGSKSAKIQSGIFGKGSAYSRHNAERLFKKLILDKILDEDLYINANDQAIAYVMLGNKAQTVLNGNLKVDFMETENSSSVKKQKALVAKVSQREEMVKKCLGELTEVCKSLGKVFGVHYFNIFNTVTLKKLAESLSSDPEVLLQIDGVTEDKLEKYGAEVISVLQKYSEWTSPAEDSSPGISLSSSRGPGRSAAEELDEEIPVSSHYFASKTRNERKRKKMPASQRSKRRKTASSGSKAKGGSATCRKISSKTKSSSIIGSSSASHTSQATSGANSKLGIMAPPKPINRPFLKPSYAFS
# UniProt Q08999: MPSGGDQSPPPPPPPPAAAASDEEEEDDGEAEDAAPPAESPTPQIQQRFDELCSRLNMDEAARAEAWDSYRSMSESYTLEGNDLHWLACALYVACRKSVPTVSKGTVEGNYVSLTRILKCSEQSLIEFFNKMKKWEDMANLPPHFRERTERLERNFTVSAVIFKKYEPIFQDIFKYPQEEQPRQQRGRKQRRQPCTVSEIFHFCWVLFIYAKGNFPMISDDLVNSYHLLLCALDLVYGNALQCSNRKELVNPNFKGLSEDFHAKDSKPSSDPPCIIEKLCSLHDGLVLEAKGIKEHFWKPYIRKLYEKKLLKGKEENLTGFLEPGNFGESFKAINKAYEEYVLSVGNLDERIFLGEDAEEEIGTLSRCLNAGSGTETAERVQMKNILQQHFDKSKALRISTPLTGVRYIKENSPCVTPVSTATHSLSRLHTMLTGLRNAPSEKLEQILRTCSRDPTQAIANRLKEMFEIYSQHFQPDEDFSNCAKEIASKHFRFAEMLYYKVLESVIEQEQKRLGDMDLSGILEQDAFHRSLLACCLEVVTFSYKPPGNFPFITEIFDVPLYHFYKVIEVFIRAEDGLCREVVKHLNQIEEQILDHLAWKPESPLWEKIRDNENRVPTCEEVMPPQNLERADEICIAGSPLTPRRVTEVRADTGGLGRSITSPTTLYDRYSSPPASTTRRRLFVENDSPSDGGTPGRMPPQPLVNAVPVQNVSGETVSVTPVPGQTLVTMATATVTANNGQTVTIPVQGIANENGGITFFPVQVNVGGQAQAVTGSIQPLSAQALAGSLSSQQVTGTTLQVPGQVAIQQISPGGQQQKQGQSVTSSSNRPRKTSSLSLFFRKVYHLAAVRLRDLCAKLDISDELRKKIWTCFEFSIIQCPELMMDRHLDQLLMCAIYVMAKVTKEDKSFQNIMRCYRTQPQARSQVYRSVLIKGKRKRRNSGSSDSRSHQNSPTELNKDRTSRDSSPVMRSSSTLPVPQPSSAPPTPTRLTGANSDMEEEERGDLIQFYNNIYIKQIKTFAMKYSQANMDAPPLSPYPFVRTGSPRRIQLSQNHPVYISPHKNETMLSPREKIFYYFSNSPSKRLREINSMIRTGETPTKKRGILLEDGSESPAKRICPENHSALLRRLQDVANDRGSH
# Target: T1, SMYD3 (endogenous) (human (endogenous in HT-29, HGC-27, HLC-19, CAPAN-1)) (UniProt Q9H7B4)
# T1 sequence: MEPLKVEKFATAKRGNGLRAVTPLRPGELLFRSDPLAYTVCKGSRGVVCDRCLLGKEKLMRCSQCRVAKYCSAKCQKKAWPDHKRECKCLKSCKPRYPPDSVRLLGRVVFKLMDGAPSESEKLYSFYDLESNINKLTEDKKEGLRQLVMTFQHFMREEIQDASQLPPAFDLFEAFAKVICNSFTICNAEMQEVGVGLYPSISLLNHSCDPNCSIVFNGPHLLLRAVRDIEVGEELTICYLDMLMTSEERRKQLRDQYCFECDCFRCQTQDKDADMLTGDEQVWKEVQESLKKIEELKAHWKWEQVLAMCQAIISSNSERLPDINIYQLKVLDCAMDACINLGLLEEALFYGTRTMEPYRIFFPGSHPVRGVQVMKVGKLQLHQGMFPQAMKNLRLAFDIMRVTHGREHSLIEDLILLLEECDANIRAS
# Assay: co-IP; endogenous proteins in whole-cell lysates (HT-29; for some pairs also HGC-27, HLC-19, CAPAN-1); IP with antibody to SMYD3 or to the partner on Dynabeads Protein A or G, immunoblot; lysis buffer 50 mM Tris-HCl pH 7.4, 5 mM EDTA, 250 mM NaCl, 1% Triton X-100; for phospho-MET cells serum-starved 24 h, then 10 ng/ml HGF for 2 h
row,Substance,binding
1,"phospho-MET (endogenous, after HGF) (from UniProt P08581 25-1390) (receptor)",binds
2,"MET, hepatocyte growth factor (HGF) receptor (endogenous) (from UniProt P08581 25-1390)",binds
3,Bloom syndrome protein (endogenous) (from UniProt P54132 1-1417),binds
4,p130 (RBL2) (endogenous) (from UniProt Q08999 1-1139),binds
